Measured values from US20110300579A1.
No constants are given. Whether binding was seen depends on the method and setting. Some binding calls cover weakened binding; strength is not graded here.

The chains behind the UniProt entries cited, without tags or fusion partners. Where a name states a change or a piece, a line headed by the entry shows the natural chain unless it says otherwise.
UniProt P06756: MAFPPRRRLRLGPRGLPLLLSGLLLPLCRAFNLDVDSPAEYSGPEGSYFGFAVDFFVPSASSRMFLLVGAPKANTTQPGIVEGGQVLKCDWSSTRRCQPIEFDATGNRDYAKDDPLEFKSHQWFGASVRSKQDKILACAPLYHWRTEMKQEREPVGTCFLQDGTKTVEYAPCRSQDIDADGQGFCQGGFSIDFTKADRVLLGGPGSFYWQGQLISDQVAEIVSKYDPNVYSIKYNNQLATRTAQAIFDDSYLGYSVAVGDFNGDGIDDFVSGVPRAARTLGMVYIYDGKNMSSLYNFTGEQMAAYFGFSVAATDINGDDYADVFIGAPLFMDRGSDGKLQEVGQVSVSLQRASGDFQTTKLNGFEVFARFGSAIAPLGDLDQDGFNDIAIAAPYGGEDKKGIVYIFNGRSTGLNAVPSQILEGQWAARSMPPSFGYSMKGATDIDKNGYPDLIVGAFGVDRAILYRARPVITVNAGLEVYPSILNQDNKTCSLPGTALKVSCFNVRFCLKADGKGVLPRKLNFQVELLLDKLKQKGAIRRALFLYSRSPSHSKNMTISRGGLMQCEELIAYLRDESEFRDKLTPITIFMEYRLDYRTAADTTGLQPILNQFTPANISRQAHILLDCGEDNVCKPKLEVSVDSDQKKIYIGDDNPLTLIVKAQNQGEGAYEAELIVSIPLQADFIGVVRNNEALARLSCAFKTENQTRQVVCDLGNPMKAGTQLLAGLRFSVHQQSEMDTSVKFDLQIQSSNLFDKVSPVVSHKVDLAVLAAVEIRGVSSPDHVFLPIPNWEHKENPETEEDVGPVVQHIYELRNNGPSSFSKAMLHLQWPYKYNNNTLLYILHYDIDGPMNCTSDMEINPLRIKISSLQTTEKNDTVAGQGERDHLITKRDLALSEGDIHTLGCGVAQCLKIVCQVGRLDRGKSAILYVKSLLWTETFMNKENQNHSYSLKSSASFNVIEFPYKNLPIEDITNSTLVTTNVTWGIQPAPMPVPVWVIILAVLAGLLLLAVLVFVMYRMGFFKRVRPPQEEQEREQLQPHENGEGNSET
UniProt P08648: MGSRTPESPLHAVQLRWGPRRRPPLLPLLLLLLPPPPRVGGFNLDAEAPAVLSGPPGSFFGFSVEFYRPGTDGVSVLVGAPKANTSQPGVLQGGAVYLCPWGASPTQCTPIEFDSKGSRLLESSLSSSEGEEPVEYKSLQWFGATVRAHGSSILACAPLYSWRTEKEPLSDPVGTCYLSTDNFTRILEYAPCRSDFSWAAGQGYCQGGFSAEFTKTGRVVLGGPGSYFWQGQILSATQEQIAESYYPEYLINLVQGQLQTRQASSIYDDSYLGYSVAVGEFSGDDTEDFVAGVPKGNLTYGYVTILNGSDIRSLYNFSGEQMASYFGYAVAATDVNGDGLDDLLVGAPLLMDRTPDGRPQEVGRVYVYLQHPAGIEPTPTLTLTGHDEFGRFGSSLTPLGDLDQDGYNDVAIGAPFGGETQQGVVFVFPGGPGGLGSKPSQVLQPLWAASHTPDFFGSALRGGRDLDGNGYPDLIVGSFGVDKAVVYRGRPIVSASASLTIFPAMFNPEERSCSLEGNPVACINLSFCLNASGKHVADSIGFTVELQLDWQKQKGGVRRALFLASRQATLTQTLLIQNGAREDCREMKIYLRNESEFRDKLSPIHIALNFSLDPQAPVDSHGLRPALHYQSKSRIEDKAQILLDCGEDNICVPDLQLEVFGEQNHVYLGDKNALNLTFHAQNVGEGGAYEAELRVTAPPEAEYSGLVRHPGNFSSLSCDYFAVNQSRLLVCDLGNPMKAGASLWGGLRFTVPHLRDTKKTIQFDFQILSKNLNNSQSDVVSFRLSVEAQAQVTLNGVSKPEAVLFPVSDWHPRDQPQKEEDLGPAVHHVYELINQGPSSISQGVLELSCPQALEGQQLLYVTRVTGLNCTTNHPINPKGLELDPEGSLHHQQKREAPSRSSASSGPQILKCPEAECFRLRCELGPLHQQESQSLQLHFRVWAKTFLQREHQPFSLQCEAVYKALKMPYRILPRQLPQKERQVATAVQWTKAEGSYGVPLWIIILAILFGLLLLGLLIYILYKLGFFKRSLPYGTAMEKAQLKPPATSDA

Legend:
Assay in all cases: fluorescence polarization
[1] = target: purified soluble αvβ3 integrin (Millipore) (UniProt P06756)
[2] = target: purified soluble αvβ5 integrin (Millipore) (UniProt P06756)
[3] = target: soluble recombinant α5β1 integrin (R&D Systems) (UniProt P08648)

Measured: binding

B1: Contortrostatin (CN), native, purified from Agkistrodon contortrix contortrix venom (ligand)
chain: DAPANPCCDAATCKLTTGSQCADGLCCDQCKFMKEGTVCRRARGDDLDDYCNGISAGCPRNPFH
binds: all assays above
